2 molecules from patent publication US20250375530A1, “ROR1/EGFR BI-SPECIFIC ANTIGEN BINDING MOLECULES” (ALMAC DISCOVERY LIMITED, priority 2022, published 2025) can be followed below.

For the assay, the target named is human ROR1-Fc (CHO) (human). The experiment in a line: ELISA, plate coated with human ROR1-hFc, HisMyc-tagged VNAR at a single 5 ug/mL, Abs 450 nm; no blank bar shown. (In an ELISA, binding on a coated surface is turned into a signal by an enzyme label.)

Changes are numbered by the printed parent chain. Results are given in words; binding and its absence hold for the method and conditions named. Some results given as binding are weak or reduced against the parent protein; the word gives no strength.

B1: AA5.S (VNAR)
VNAR: TRVDQSPSSLSASVGDRVTITCVLTGTGYGLYSSTYWYRKNPGSSDEERIIIGGRYSESVNKGSKSFTLTISSLQPEDSATYYCRAREARHPWLRQWYDGAGTKVEIKQ
Regarding B1, the binding entry is given as “binds”.

B2: AC5.S (VNAR)
VNAR: B1 VNAR with G26D, G28S, D46N, E47K, I50M, I51S, G53S
Turning to B2, the binding entry is on record as “binds”.
